The values are deposited in ChEMBL (CHEMBL3988442, “University of Dundee, Small-Polar-MMV Screening Library” (2021)).

Chains of the proteins cited; added tags and fusions are not shown.
UniProt E9BF75, entry or part of it: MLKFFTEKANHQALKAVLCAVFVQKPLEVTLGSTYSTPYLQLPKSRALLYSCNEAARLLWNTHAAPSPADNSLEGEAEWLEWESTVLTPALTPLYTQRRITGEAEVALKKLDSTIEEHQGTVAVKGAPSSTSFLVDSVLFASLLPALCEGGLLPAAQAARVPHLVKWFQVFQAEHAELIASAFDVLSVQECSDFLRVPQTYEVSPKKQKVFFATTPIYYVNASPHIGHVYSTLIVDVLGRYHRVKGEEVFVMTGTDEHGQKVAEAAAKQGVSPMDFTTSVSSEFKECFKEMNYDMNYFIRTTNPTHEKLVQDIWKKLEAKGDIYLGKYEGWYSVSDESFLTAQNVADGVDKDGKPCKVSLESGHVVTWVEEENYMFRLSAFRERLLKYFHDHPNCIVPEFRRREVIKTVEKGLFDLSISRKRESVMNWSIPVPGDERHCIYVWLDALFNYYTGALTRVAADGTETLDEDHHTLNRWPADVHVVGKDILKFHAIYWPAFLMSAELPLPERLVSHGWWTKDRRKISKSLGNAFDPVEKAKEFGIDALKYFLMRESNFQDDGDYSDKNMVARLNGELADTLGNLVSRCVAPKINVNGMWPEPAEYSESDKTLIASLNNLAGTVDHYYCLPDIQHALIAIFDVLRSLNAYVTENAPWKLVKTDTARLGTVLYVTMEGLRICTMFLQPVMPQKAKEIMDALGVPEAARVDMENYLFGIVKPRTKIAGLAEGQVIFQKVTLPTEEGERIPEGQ

A: 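Methionyl-tRNA synthetase (putative), Leishmania donovani (UniProt E9BF75). Primary screen of methionyl-tRNA synthetase; the read-out is not stated. The test concentration is not given. Values are per cent inhibition. Size under these conditions: about 68,000 compounds, about 24 of them at 50% or above in at least one test.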
B: 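Assay on Mycobacterium tuberculosis, filed only as a heat shock assay from Cornell; the read-out is not stated. The concentration is filed as 10 mM, unlikely as a test dose, so the dose is not known. Higher reads as stronger inhibition (inferred: compounds with an IC50 in retests scored well above the rest). Size under these conditions: about 69,000 compounds, about 930 of them at 50% or above in at least one test.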

Results are percentages, as filed. The record does not define 0% and 100%; most values in the screen are far below 50% and negative numbers occur (in some assays of this library far below -100). This is an unselected part of the compounds tested. A dash means the value is not listed here; it may have been measured.

structure | A | B
CCN(C(=O)c1ccc2c(c1)OCO2)C1CC(=O)NC1=O (centres undefined) | 8.403 | -2.409
CCN(CCC(=O)NC1CC1)Cc1ccc(Cl)s1 | 9.777 | -8.14
c1cc2c(cc1OC[C@@H]1CCCN3CCCC[C@H]13)OCCO2 | 3.125 | -
Cc1cc(N(C)C)nc(N2CC(n3cccn3)C2)n1 | 18.12 | 1.947
N#Cc1ccc(CN2CC3(CCCCN3c3cccnc3)CC2=O)cc1 (centres undefined) | 14.88 | -
CC(CNC(=O)N1CCN(c2ncccn2)CC1)Cc1cccs1 (centres undefined) | - | -9.998
CN(Cc1ccon1)C(=O)CN1C(=O)OC(C)(C)C1=O | 9.278 | 1.496
Cc1cc(C(=O)N2CCC3(CC2)CC(c2cccnc2)C(=O)N3C)no1.O=C(O)C(F)(F)F (centres undefined) | - | -47.29
CN(C(=O)NCCN1CCOCC1)C1CCN(c2ccccc2)C1=O (centres undefined) | 15.79 | 7.38
[H][C@@]12C[C@H](C)O[C@]1([H])CCN(C(=O)COC)C2 | - | 64.99
Cc1cccc(CN2C[C@H]3C[C@H](C(=O)NCc4cccnc4)[C@@H](C2)O3)c1 | 10.14 | -
CCC(=O)c1ccc(OCC(=O)NC(C)c2ncnn2CC)cc1 (centres undefined) | 8.04 | 9.417
CN(C)S(=O)(=O)N1CC[C@]2(C[C@H](Oc3ncccc3F)CO2)C1.O=C(O)C(F)(F)F | - | 2.183
[H][C@@]12COC[C@@H](C(=O)N3CCOCC3)[C@]1([H])CN(C1CCCCC1)C2 | - | -4.476
O=C(c1ccccc1OC1CCCC1)N1CCCC(n2cncn2)C1 (centres undefined) | 22.22 | -11.46
O=C(O)C(F)(F)F.[H][C@@]12CCN(Cc3ccco3)C[C@@]1([H])O[C@H](C(=O)NCC1CCOCC1)C2 | - | 11.36
CCC(=O)N1CC[C@H]2C(=O)N(Cc3ccc(OC)cc3)CCO[C@H]2C1 | 5.245 | -
CCc1ncc2c(n1)CN(CC(=O)Nc1ccncc1)CC2 | 14.8 | 3.664
CCc1ccc(CN2CCN(c3ccc(C(N)=O)cn3)CC2)nc1 | 14.81 | 5.452
Cc1cc2n(n1)CC(CNC1CCN(C(=O)c3ccco3)CC1)CN2 (centres undefined) | 7.829 | -17.58
NC(=O)C1CCN(C(=O)c2ccn(-c3cccc(F)c3)n2)C1 (centres undefined) | 21.23 | 3.589
CN(Cc1nccs1)c1nccc(N2CCN[C@H]3CS(=O)(=O)C[C@H]32)n1 | 19.1 | -
Cn1cc(N2CC3(CCN(CC4CC4)CC3)OCC2=O)cn1.O=C(O)C(F)(F)F | - | -14.72
Cc1ccc(CN2CCC3(CCC3NC(=O)c3ccn(C)c3)CC2)s1 (centres undefined) | 17.18 | -
COCCN(Cc1cccs1)C(=O)C1CCCN(C(N)=O)C1 (centres undefined) | 4.57 | -7.348
O=C(O)CCCN1C[C@@H](c2ccccc2F)[C@@]2(CCCCC(=O)N2)C1 | 7.812 | 6.935
CS(=O)(=O)N1CCCC(c2nc(-c3ccccc3)c[nH]2)C1 (centres undefined) | 25.19 | -20.18
O=C1COC2(CCN(C(=O)[C@H]3CCCO3)CC2)CN1Cc1ccccn1 | -0.625 | -25
c1ccc(OC[C@H]2CCC[C@]23CN(Cc2nccs2)CCO3)nc1 | 5.226 | -4.058
CN(C)C(=O)CC1CC2(CCN(Cc3ccco3)CC2)c2ccccc21.O=C(O)C(F)(F)F (centres undefined) | - | -31.34
CN(C)C(=O)CN1CCO[C@H]2CN(c3ccccn3)C[C@H]21 | 15.79 | -
COc1ccc(N2CCN(CC[C@H](O)c3ccccc3)CC2=O)cc1 | 16 | 12.59
COCC1CC2(CCN(C(=O)c3cncc(C)c3)CC2)CO1.O=C(O)C(F)(F)F (centres undefined) | - | -26.38
CCn1cc2c(n1)CN(CC1CC1)CC2COCC1CC1.O=C(O)C(F)(F)F (centres undefined) | - | 0.92
O=C(O)C(F)(F)F.[H][C@]12CCC[C@@]1(COCC1CCOCC1)CN(Cc1cc(C)on1)C2 | - | -27.65
O=C(NCc1ccc(F)cc1)N1CCC(C2OCCO2)CC1 | 11.27 | 24.6
O=C(Cn1nc(-c2ccc(F)cc2)oc1=O)NCc1ccccc1F | 15.3 | -9.62
COc1ncccc1NC(=O)NC1CCCN(c2ncccn2)C1 (centres undefined) | 25.14 | -13.54
O=C(O)C(F)(F)F.c1coc(CN2CCC3(CC2)COC(COCC2CC2)C3)c1 (centres undefined) | - | -19.69
Nc1cc2c(nn1)CCN(C(=O)CC1CCCC1)C2 | 13.62 | 17.26
O=C(O)c1csc(S(=O)(=O)N2CCN(Cc3c(F)cccc3Cl)CC2)c1 | 4.032 | -2.19
COc1ccc(CN(C)CC(=O)Nc2ccc3[nH]c(=O)[nH]c3c2)cc1F | 12.24 | 16.91
CCC(NC(=O)c1cc(CC(C)C)nn1C)c1cccc(C)n1 (centres undefined) | 5.479 | -13.92
O=C(NCC1CC1)c1cc2c(s1)CCN2C(=O)c1ccc(F)cc1 | 12.88 | -15.86
Cc1noc(C)c1CNCC1Cn2nncc2CO1.O=C(O)C(F)(F)F (centres undefined) | - | 2.605
CCc1c(C)nc(C)nc1N1C[C@@H](CN(C)C)[C@@H](CO)C1 | 9.497 | -16.51
COC(=O)N1CCC(CNC(=O)C2CC2)CC1 | 14.37 | -17.63
NC(=O)Nc1cc(Br)cnc1OCC(F)(F)F | 12.98 | 9.655
Cc1cc2c(N)nc(=O)n(CC(=O)Nc3ccccc3)c2s1 | 1.809 | 38.31
Cc1ccc(C(=O)N2CC[C@]3(C[C@@H](OCc4ccccn4)CO3)C2)nc1 | 7.96 | -
CC(=O)N[C@@H]1CN(C(=O)c2cc3sccc3[nH]2)C[C@H]1c1ccc(C)o1 | 14.29 | 16.21
COCCNC(=O)NC(=O)CNc1c(F)cccc1N1CCCC1 | 14.93 | 6.992
COCCN1CCC2(CC1)CN(C(=O)c1cccs1)CCO2.O=C(O)C(F)(F)F | - | -30.84
COc1ncccc1NC(=O)N1CCC(c2ccc(O)cc2)CC1 | 9.441 | 13.64
CN(C)Cc1cnc(C2CCN(C(=O)c3ccccc3F)C2)[nH]1.Cl (centres undefined) | - | -4.161
Cn1nc(CN2CCOCC2)c2c1CN(Cc1ccsc1)C2.O=C(O)C(F)(F)F.O=C(O)C(F)(F)F | - | -21.84
Cc1nc2c(c(NC(C)C)n1)CCN(C(=O)c1cc[nH]n1)CC2.O=C(O)C(F)(F)F | - | -13.48
Cc1cc(C)nc(N2CCN(Cc3cc4n(n3)CCNC4)CC2)n1 | 11.94 | -12.79
CC(C)[C@H]1CN(C(=O)CC2CCC2)C[C@@H]1N(C)C | -2.872 | -14.36
[H][C@]12CCC[C@@]1(CO)CN(C(=O)c1cc(C)nc3cc(F)ccc13)C2 | - | -22.74
F[C@@H]1CN(CC2CC2)C[C@@H]1OCc1nc2ccccc2[nH]1 | 3.759 | -13.34
CCC(CO)N(Cc1ccsc1)Cc1cccc(O)c1 (centres undefined) | 15.78 | -5.219
CC(C)c1nc(CC(=O)N2CCCC(n3cncn3)C2)cs1 (centres undefined) | 10.43 | 28.15
O=C(NCCNc1cnccn1)N1CCCC1 | 9.722 | -1.812
CCOCCN1CCO[C@H]2[C@H](OCc3ccccn3)CC[C@@H]21 | 15.69 | -
CN(C)CCO[C@@H]1CC[C@H]2[C@H]1OCCN2C(=O)COc1ccccc1 | 11.78 | -
Cc1ccnc(NC(=O)C2CCN(CCCc3cn[nH]c3)CC2)c1 | 13.64 | -17.35
CC(O)CCN(C)c1nc2ccccc2c(=O)[nH]1 (centres undefined) | 9.42 | 5.198
NS(=O)(=O)CCN(CCc1cccc(F)c1)C1CCCC1 | 10.28 | 2.562
[H][C@@]12CCN(Cc3cccs3)C[C@]1([H])[C@H](c1nc(C)no1)CCO2 | - | -31.36
CC(C)(C)n1ncc(NCC(O)c2ccccc2C(F)(F)F)c(Cl)c1=O (centres undefined) | 17.48 | -6.814
N#Cc1cccnc1NCc1cccc(C(=O)NCC2CCCCO2)c1 (centres undefined) | 15.14 | 9.165
COC(=O)CNC(=O)CCc1cc(Br)cs1 | 8.488 | 9.887
CCc1nc(CCNC(=O)NC2CC(=O)N(C(C)(C)C)C2)cs1 (centres undefined) | 4.819 | 10.09
COC(=O)c1ccc(C(=O)NCc2ccco2)nc1 | 6.949 | -193
Cc1nn(CCO)c(C)c1CNC1CCOc2ccccc21.Cl (centres undefined) | - | 5.137
Cc1cc(Cl)cc(C)c1CNC1CCN(CC(=O)N(C)C)CC1 | 12.41 | 0.1333
CNC(=O)c1ccc(N(C)C2CCC2)nn1 | 2.308 | -22.1
CC(C)(C)NC(=O)C1CCCCN1Cc1nccn1CC(F)(F)F (centres undefined) | 22.05 | -111.3
Cc1nn(C)c(C)c1-c1cnc(CC2CCNCC2)cn1 | 17.72 | -11.01
Cc1ccc(C(=O)NC2CCN(C(=O)Nc3ccccn3)CC2)s1 | 5.525 | -5.499
O=S(=O)(c1cc(F)cc(F)c1)N1CCC(Oc2ccc(Cl)cn2)CC1 | 14.39 | 9.296
CCN1CCN(Cc2csc(C(C)C)n2)CC1 | 9.966 | 30.4

The first 7 entries again:

structure,A,B
CCN(C(=O)c1ccc2c(c1)OCO2)C1CC(=O)NC1=O (centres undefined),8.403,-2.409
CCN(CCC(=O)NC1CC1)Cc1ccc(Cl)s1,9.777,-8.14
c1cc2c(cc1OC[C@@H]1CCCN3CCCC[C@H]13)OCCO2,3.125,-
Cc1cc(N(C)C)nc(N2CC(n3cccn3)C2)n1,18.12,1.947
N#Cc1ccc(CN2CC3(CCCCN3c3cccnc3)CC2=O)cc1 (centres undefined),14.88,-
CC(CNC(=O)N1CCN(c2ncccn2)CC1)Cc1cccs1 (centres undefined),-,-9.998
CN(Cc1ccon1)C(=O)CN1C(=O)OC(C)(C)C1=O,9.278,1.496